# Laboratory results from PubChem BioAssay (EPA / NIEHS).
# Chains of the proteins cited; added tags and fusions are not shown. Lines headed by an entry give the natural chain unless they say otherwise; changes in a name come on top.
# UniProt P33261, whole entry, looked up: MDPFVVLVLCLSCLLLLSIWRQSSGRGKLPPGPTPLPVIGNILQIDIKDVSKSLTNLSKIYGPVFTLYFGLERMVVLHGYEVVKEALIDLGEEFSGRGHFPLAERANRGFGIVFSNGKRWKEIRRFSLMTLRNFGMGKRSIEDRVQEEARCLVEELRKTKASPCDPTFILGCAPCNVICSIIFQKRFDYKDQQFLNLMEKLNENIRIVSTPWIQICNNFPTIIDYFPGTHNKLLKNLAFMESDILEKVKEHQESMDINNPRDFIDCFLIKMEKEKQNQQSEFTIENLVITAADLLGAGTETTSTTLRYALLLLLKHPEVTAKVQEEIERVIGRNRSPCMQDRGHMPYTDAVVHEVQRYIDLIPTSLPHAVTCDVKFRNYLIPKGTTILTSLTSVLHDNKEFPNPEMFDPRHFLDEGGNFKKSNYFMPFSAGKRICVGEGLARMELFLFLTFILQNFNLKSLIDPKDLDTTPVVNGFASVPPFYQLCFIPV
# UniProt P04406: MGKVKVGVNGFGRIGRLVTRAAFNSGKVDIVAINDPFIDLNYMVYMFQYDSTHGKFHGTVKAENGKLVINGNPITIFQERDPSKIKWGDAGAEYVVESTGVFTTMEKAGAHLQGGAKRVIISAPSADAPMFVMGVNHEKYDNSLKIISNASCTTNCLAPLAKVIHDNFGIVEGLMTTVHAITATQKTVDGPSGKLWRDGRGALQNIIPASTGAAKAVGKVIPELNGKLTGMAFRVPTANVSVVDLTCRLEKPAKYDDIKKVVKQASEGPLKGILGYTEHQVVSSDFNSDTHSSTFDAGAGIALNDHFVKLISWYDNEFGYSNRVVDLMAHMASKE
# UniProt P08684, whole entry, looked up: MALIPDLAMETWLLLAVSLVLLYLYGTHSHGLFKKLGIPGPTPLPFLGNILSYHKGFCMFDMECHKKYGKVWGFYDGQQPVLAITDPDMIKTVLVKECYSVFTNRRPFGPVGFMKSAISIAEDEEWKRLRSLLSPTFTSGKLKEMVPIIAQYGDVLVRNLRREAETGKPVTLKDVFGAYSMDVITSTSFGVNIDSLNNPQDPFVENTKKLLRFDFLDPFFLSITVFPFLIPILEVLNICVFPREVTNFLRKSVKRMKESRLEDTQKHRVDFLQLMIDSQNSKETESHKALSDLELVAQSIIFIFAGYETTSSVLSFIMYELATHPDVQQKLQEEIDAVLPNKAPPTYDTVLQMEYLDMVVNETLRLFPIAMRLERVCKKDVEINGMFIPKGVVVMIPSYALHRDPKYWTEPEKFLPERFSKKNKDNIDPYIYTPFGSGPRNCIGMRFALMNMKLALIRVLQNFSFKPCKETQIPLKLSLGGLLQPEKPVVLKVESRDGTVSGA
# UniProt P20813: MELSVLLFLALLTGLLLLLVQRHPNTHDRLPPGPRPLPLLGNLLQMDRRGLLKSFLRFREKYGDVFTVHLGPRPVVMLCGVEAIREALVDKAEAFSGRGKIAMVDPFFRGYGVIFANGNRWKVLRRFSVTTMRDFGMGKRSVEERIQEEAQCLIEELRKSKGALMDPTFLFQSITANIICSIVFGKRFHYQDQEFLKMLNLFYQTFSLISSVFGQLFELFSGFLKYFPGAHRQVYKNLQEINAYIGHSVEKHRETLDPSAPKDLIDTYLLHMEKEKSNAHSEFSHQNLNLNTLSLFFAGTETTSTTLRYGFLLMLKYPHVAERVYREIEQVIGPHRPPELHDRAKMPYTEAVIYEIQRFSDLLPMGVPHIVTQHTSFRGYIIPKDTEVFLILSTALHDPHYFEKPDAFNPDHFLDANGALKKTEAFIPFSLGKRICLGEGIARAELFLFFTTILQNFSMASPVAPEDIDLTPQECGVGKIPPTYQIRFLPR
# The shares of active, inactive and inconclusive entries below differ from those in the screen. Potencies beside an inconclusive call are fits to weak or partial responses and may not hold up. Activity calls are given as the source filed them. The calls were made as follows: active = hit-call score of the fitted dose curve at least 0.9, where 1 is the maximum; inconclusive = response in the unintended direction; inactive = score below 0.9.
# Columns and labels:
# [1] = read-out: xenobiotic metabolism (CYP1A2), CYP1A2 (gene 1544); assay: CLD_CYP1A2_6hr: CellzDirect (CLD) Gene Expression Assay for xenobiotic metabolism (CYP1A2) at 6 hours (AID 2283663);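 also: potency is for induction meaning a rise in mRNA above DMSO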
# In short: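 Primary human hepatocytes from two donor preparations, dosed daily with multiple concentrations in 0.2% DMSO and harvested at 6 h. CYP1A2 mRNA induction measured by chemiluminescent qNPA, gain of signal fitted against DMSO; cytotoxicity flagged morphologically.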
# [2] = read-out: xenobiotic metabolism (CYP2C9), CYP2C9 (gene 1559); assay: CLD_CYP2C9_6hr: CellzDirect (CLD) Gene Expression Assay for xenobiotic metabolism (CYP2C9) at 6 hours (AID 2283664)
# In short: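 Primary human hepatocytes dosed daily with test chemicals at multiple concentrations; harvested at 6 h. CYP2C9 mRNA induction measured by qNPA chemiluminescence. Gain of signal fitted against 0.2% DMSO vehicle; cytotoxicity annotated from phase-contrast morphology.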
# [3] = read-out: alkyl and aryl transferase (GSTA2), GSTA2 (gene 2939); assay: CLD_GSTA2_6hr: CellzDirect (CLD) Gene Expression Assay for alkyl and aryl transferase (GSTA2) at 6 hours (AID 2283666)
# In short: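 Primary human hepatocytes from two donor preparations were dosed daily with fresh compound at multiple concentrations, 0.2% DMSO vehicle. GSTA2 mRNA was measured at 6 hours by qNPA chemiluminescence; induction fitted relative to DMSO, with cytotoxicity flagged morphologically.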
# [4] = Tanguay_ZF_120hpf_TR_legacy: (Legacy) Oregon State University Tanguay Lab 120 Hour Post-fertilization zebrafish Assay for Touch Response (AID 2283667)
# In short: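 Tropical 5D wild-type zebrafish embryos statically exposed to 120 hpf at 28°C, sealed and dark-covered, 0.64% DMSO final; touch response scored as present/absent by brightfield microscopy at 120 hpf. Trimethyltin chloride 5 uM positive control; dead embryos not scored.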
# [5] = read-out: organic anion transporter (SLCO1B1), SLCO1B1 (gene 10599); assay: CLD_SLCO1B1_6hr: CellzDirect (CLD) Gene Expression Assay for organic anion transporter (SLCO1B1) at 6 hours (AID 2283668);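 also: active means mRNA induction above DMSO baseline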
# In short: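 Primary human hepatocytes dosed daily with test chemicals (multiple concentrations) in 0.2% DMSO vehicle; harvested at 6 h. SLCO1B1 mRNA quantified by qNPA chemiluminescence, fitted as gain-of-signal versus DMSO; cytotoxicity from phase-contrast morphology flagged alongside.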
# [6] = read-out: ABC Transporter (ABCB11), ABCB11 (gene 8647); assay: CLD_ABCB11_6hr: CellzDirect (CLD) Gene Expression Assay for ABC Transporter (ABCB11) at 6 hours (AID 2283675);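 also: hits raise ABCB11 mRNA level so AC50 marks induction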
# In short: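 Human primary hepatocytes (two donor preparations) given fresh chemical daily at multiple concentrations, vehicle 0.2% DMSO. ABCB11 mRNA induction measured 6 h after dosing by qNPA chemiluminescence versus DMSO; cytotoxicity annotated from morphology.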
# [7] = read-out: Cytochrome P450 2C19 (Homo sapiens) (UniProt P33261); assay: CLD_CYP2C19_6hr: CellzDirect (CLD) Gene Expression Assay for xenobiotic metabolism (CYP2C19) at 6 hours (AID 2283678)
# In short: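 Primary human hepatocytes from two donor preparations were dosed daily, with 0.2% DMSO as vehicle, and harvested 6 h after dosing. CYP2C19 mRNA induction was measured by qNPA chemiluminescence and fitted as gain of signal against DMSO.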
# [8] = read-out: Glyceraldehyde-3-phosphate dehydrogenase (Homo sapiens) (UniProt P04406); assay: CLD_GAPDH_6hr: CellzDirect (CLD) Gene Expression Assay for Baseline Control (Glyceraldehyde 3-phosphate dehydrogenase) at 6 hours (AID 2283681)
# In short: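 Primary human hepatocytes from two donor preparations, dosed at multiple concentrations with 0.2% DMSO vehicle; GAPDH mRNA measured 6 h after dosing by chemiluminescent quantitative nuclease protection assay (qNPA) on denatured lysates. Serves as background control; cytotoxicity annotated by morphology.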
# [9] = read-out: HMG-CoA synthase (HMGCS2), HMGCS2 (gene 3158); assay: CLD_HMGCS2_6hr: CellzDirect (CLD) Gene Expression Assay for HMG-CoA synthase (HMGCS2) at 6 hours (AID 2283682);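 also: actives raise HMGCS2 transcript above the 0.2% DMSO vehicle baseline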
# In short: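 Primary human hepatocytes dosed daily with fresh chemical, 0.2% DMSO vehicle; HMGCS2 mRNA measured at 6 h by qNPA chemiluminescence. Gain of signal fitted against DMSO; cytotoxicity flagged from phase-contrast morphology.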
# [10] = read-out: ABC Transporter (ABCB1), ABCB1 (gene 5243); assay: CLD_ABCB1_24hr: CellzDirect (CLD) Gene Expression Assay for ABC Transporter (ABCB1) at 24 hours (AID 2283684);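 also: potency for increase in ABCB1 mRNA relative to DMSO vehicle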
# In short: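 Primary human hepatocytes, two donor preparations, dosed daily with fresh solutions; vehicle 0.2% DMSO; harvested at 24 h. ABCB1 mRNA measured by quantitative nuclease protection assay (chemiluminescence); morphology-based cytotoxicity annotated.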
# [11] = CLD_ACTIN_24hr: CellzDirect (CLD) Gene Expression Assay for Baseline Control (Actin) at 24 hours (AID 2283670)
# In short: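 Primary human hepatocytes dosed over multiple concentrations with 0.2% DMSO vehicle; actin mRNA measured at 24 h by qNPA chemiluminescence. Background control endpoint, fitted as gain of signal versus DMSO.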
# [12] = read-out: glucuronosyltransferase (UGT1A1), UGT1A1 (gene 54658); assay: CLD_UGT1A1_6hr: CellzDirect (CLD) Gene Expression Assay for glucuronosyltransferase (UGT1A1) at 6 hours (AID 2283672)
# In short: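 Primary human hepatocytes from two donor preparations, dosed with fresh solutions in 0.2% DMSO, harvested at 6 h. UGT1A1 mRNA measured by qNPA chemiluminescence; induction fitted upward versus DMSO.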
# [13] = read-out: xenobiotic metabolism (CYP1A1), CYP1A1 (gene 1543); assay: CLD_CYP1A1_24hr: CellzDirect (CLD) Gene Expression Assay for xenobiotic metabolism (CYP1A1) at 24 hours (AID 2283673);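 also: CYP1A1 mRNA level by quantitative nuclease protection with chemiluminescence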
# In short: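 Primary human hepatocytes dosed daily with fresh solutions in 0.2% DMSO vehicle. mRNA measured at 24 h by quantitative nuclease protection assay with chemiluminescence; gain-of-signal fit versus DMSO, with morphology-based cytotoxicity flags.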
# [14] = read-out: sulfotransferase (SULT2A), SULT2A1 (gene 6822); assay: CLD_SULT2A_6hr: CellzDirect (CLD) Gene Expression Assay for sulfotransferase (SULT2A) at 6 hours (AID 2283669);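 also: hits raise transcript level above the DMSO vehicle baseline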
# In short: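 Primary human hepatocytes from two donor preparations were dosed daily with chemicals or 0.2% DMSO and harvested at 6 h. Transcript induction read by qNPA chemiluminescence, fitted for gain of signal relative to DMSO; morphology-based cytotoxicity annotated.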
# [15] = CLD_ACTIN_6hr: CellzDirect (CLD) Gene Expression Assay for Baseline Control (Actin) at 6 hours (AID 2283676)
# In short: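 Primary human hepatocytes dosed with fresh chemical solutions (vehicle 0.2% DMSO), harvested at 6 h. Actin mRNA quantified by quantitative nuclease protection assay with chemiluminescent read-out, as background control relative to DMSO.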
# [16] = read-out: Cytochrome P450 3A4 (Homo sapiens) (UniProt P08684); assay: CLD_CYP3A4_6hr: CellzDirect (CLD) Gene Expression Assay for xenobiotic metabolism (CYP3A4) at 6 hours (AID 2283680)
# In short: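 Primary human hepatocytes (two donor preparations) dosed; CYP3A4 mRNA harvested at 6 h and quantified by qNPA chemiluminescence. Gain of signal fitted against 0.2% DMSO vehicle; cytotoxicity flagged by phase-contrast morphology.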
# [17] = read-out: xenobiotic metabolism (CYP1A2), CYP1A2 (gene 1544); assay: CLD_CYP1A2_24hr: CellzDirect (CLD) Gene Expression Assay for xenobiotic metabolism (CYP1A2) at 24 hours (AID 2283683)
# In short: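 Primary human hepatocytes from two donor preparations dosed daily with multiple concentrations of chemical, 0.2% DMSO vehicle. CYP1A2 mRNA at 24 h quantified by qNPA chemiluminescence; gain of signal analyzed relative to DMSO. Cytotoxicity flagged by phase-contrast morphology.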
# [18] = read-out: Cytochrome P450 2B6 (Homo sapiens) (UniProt P20813); assay: CLD_CYP2B6_6hr: CellzDirect (CLD) Gene Expression Assay for xenobiotic metabolism (CYP2B6) at 6 hours (AID 2283677);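 also: actives raise CYP2B6 transcript above DMSO baseline so AC50 marks an inducer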
# In short: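 Primary human hepatocytes dosed with chemicals at multiple concentrations, vehicle 0.2% DMSO; CYP2B6 mRNA induction measured 6 h after dosing by quantitative nuclease protection assay with chemiluminescence, gain of signal fitted relative to DMSO.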
# [19] = CCTE_Simmons_CellTiterGLO_HEK293T: Viability Assessment in CCTE's Assays for Thyroperoxidase (TPO) Inhibition, Simmons Lab (AID 2283665);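 also: cells exposed to compound for 24 h before readout; actives reduce ATP signal below DMSO vehicle meaning cytotoxicity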
# In short: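 HEK293T cells in DMEM with 1% FBS were dosed with 8 concentrations (5 nM–87.5 uM final, 0.5% DMSO) for 24 hr at 37C; ATP content was read by CellTiter-Glo luminescence, loss-of-signal versus DMSO, three biological replicates.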
structure (smiles),measurement,setting,value
COP(=S)(OC)Oc1ccc(SC)c(C)c1,AC50,[1],active: 5.14 µM
same,AC50,[2],inconclusive: 20 µM
same,AC50,[3],inconclusive: 8.93 µM
same,AC50,[4],inconclusive: 48.2 µM
same,AC50,[5],inconclusive: 20 µM
same,AC50,[6],inconclusive: 6.9 µM
same,AC50,[7],inconclusive: 20 µM
same,AC50,[8],inconclusive: 14.4 µM
same,AC50,[9],inconclusive: 0.0004 µM
same,AC50,[10],inconclusive: 20 µM
CC1(C)C(C=C(Cl)Cl)C1C(=O)OC(C#N)c1cccc(Oc2ccccc2)c1 (configuration not stated),AC50,[1],active: 2.15 µM
same,AC50,[2],inconclusive: 20 µM
same,outcome,[5],inactive
same,AC50,[11],inconclusive: 20 µM
same,outcome,[12],inactive
same,AC50,[13],active: 8.15 µM
same,AC50,[8],inconclusive: 20 µM
CCOC(=O)C(C)OC(=O)c1cc(Oc2ccc(C(F)(F)F)cc2Cl)ccc1[N+](=O)[O-] (configuration not stated),AC50,[2],inconclusive: 0.0004 µM
same,AC50,[3],inconclusive: 6.26 µM
same,outcome,[5],inactive
same,AC50,[14],inconclusive: 0.000474 µM
same,AC50,[15],inconclusive: 20 µM
same,AC50,[16],active: 4.03 µM
same,AC50,[8],inconclusive: 20 µM
same,AC50,[9],active: 0.0241 µM
same,AC50,[10],inconclusive: 2.56 µM
N#Cc1c(Cl)c(Cl)c(Cl)c(C#N)c1Cl,AC50,[2],inconclusive: 0.0004 µM
same,AC50,[4],inconclusive: 0.837 µM
same,AC50,[5],inconclusive: 34.1 µM
same,AC50,[14],active: 33.5 µM
same,AC50,[12],inconclusive: 20 µM
same,AC50,[13],inconclusive: 0.0004 µM
same,AC50,[8],inconclusive: 34.2 µM
same,AC50,[9],inconclusive: 0.0004 µM
same,AC50,[17],inconclusive: 0.148 µM
Cc1cc(Cl)ccc1OCC(=O)O,AC50,[1],inconclusive: 20 µM
same,outcome,[3],inactive
same,AC50,[5],inconclusive: 20 µM
same,AC50,[11],inconclusive: 20 µM
same,AC50,[18],inconclusive: 20 µM
same,AC50,[16],inconclusive: 0.198 µM
same,AC50,[9],inconclusive: 20 µM
same,AC50,[17],inconclusive: 0.000471 µM
COP(N)(=O)SC (configuration not stated),AC50,[2],inconclusive: 20 µM
same,AC50,[19],inconclusive: 53.8 µM
same,AC50,[4],inconclusive: 68.1 µM
same,AC50,[11],inconclusive: 0.963 µM
same,AC50,[12],inconclusive: 20 µM
same,AC50,[18],inconclusive: 20 µM
same,AC50,[8],inconclusive: 20 µM
same,AC50,[17],inconclusive: 0.049 µM
CCOc1cc(Oc2ccc(C(F)(F)F)cc2Cl)ccc1[N+](=O)[O-],AC50,[1],inconclusive: 0.000557 µM
same,AC50,[2],inconclusive: 20 µM
same,AC50,[11],inconclusive: 20 µM
same,AC50,[15],inconclusive: 20 µM
same,AC50,[7],inconclusive: 20 µM
same,outcome,[9],inactive
same,AC50,[10],inconclusive: 20 µM
COP(=O)(OC)SCn1c(=O)oc2cc(Cl)cnc21,outcome,[2],inactive
same,outcome,[3],inactive
same,AC50,[5],inconclusive: 0.00336 µM
same,outcome,[14],inactive
same,AC50,[12],inconclusive: 20 µM
same,outcome,[13],inactive
same,AC50,[18],inconclusive: 0.635 µM
same,AC50,[8],inconclusive: 0.0084 µM
same,AC50,[9],inconclusive: 20 µM

# Reformatted tab-delimited: part of the list above.
structure (smiles)	measurement	setting	value
COP(=S)(OC)Oc1ccc(SC)c(C)c1	AC50	[3]	inconclusive: 8.93 µM
CC1(C)C(C=C(Cl)Cl)C1C(=O)OC(C#N)c1cccc(Oc2ccccc2)c1 (configuration not stated)	outcome	[12]	inactive
Cc1cc(Cl)ccc1OCC(=O)O	AC50	[9]	inconclusive: 20 µM
COP(N)(=O)SC (configuration not stated)	AC50	[4]	inconclusive: 68.1 µM
